Earlier results in US20220315539A1, “PHENAZINE DERIVATIVE AND USE THEREOF FOR THE TREATMENT OF CANCER” (CENTRE NATIONAL DE LA RECHERCHE SCIENTIFIQUE, priority 2019, published 2022).
At least one structure is not confirmed: it was looked up by name or label, or the drawing left a doubt.

Details: in acetonitrile; cited from earlier work

Compound: C1=Cc2nc1c(-c1ccccc1)c1nc(c(-c3ccccc3)c3ccc([nH]3)c(-c3ccccc3)c3ccc([nH]3)c2-c2ccccc2)C=C1 [tetraphenylporphyrin]
- fluorescence quantum yield ϕf of the reference: 0.15
